Assay results taken from doi:10.1101/693663 (bioRxiv, 2019).
Results are given in words; binding and its absence hold for the method and conditions named. Some binding calls cover weakened binding; strength is not graded here. For some of these results: Where a sequence is shown, tags or fusion partners need not be part of it.

Legend:
[1] = target: T1, ASK1(C1360E) SAM domain (human) (UniProt Q99683); experiment: SEC
T1 sequence: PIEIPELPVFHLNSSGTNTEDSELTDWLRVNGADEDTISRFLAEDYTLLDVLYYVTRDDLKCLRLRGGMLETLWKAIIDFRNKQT

[2] = target: T2, GST-ASK3 SAM domain (human) (UniProt Q6ZN16); experiment: pull-down
T2 sequence: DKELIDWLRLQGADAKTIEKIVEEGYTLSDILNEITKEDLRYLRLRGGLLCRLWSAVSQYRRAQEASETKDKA

[3] = target: ASK1 SAM domain F1369Q (human) (UniProt Q99683); experiment: SEC
[4] = target: T3, GST-ASK2 SAM domain (human, UniProt O95382 1216-1288); experiment: pull-down
T3 sequence (looked up): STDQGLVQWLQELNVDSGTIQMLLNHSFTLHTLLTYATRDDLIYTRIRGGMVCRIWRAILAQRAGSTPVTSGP

[5] = target: T4, ASK1(1290–1374), C-terminal SAM domain of ASK1 (human) (UniProt Q99683); experiment: SEC
T4 sequence: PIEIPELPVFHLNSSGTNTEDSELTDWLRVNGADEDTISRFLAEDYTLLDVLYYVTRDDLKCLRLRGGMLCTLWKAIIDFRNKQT

[6] = target: T5, GST-ASK1 SAM domain (human) (UniProt Q99683); experiment: pull-down
T5 sequence: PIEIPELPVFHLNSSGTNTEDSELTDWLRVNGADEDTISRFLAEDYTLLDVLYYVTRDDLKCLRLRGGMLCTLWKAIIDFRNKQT

B1: ASK2(1216–1288), C-terminal SAM domain of ASK2 (domain or fragment, UniProt O95382 1216-1288)
chain: STDQGLVQWLQELNVDSGTIQMLLNHSFTLHTLLTYATRDDLIYTRIRGGMVCRIWRAILAQRAGSTPVTSGP
With B1 the binding [1] was “no binding” and the binding [2] was “binds weakly”.

B2: ASK3(1241–1313), C-terminal SAM domain of ASK3 (domain or fragment, human, UniProt Q6ZN16 1241-1313, looked up)
chain: DKELIDWLRLQGADAKTIEKIVEEGYTLSDILNEITKEDLRYLRLRGGLLCRLWSAVSQYRRAQEASETKDKA
With B2 the binding [2] was “binds weakly”.

B3: ASK1 SAM domain F1369Q (domain or fragment, UniProt Q99683 1290-1374)
chain: PIEIPELPVFHLNSSGTNTEDSELTDWLRVNGADEDTISRFLAEDYTLLDVLYYVTRDDLKCLRLRGGMLCTLWKAIIDQRNKQT
B3 was tested, and the binding [3] was “binds weakly”.

B4: ASK1(C1360E) SAM domain (domain or fragment, UniProt Q99683 1290-1374)
chain: PIEIPELPVFHLNSSGTNTEDSELTDWLRVNGADEDTISRFLAEDYTLLDVLYYVTRDDLKCLRLRGGMLETLWKAIIDFRNKQT
For B4, the binding [4] was “no binding”.

B5: ASK2(C1268E) SAM domain (domain or fragment, UniProt O95382 1216-1288)
chain: STDQGLVQWLQELNVDSGTIQMLLNHSFTLHTLLTYATRDDLIYTRIRGGMVERIWRAILAQRAGSTPVTSGP
With B5 the binding [5] was “no binding” and the binding [6] was “no binding”.
